# PubChem BioAssay AID686943 – Drosophila RNAi Screening Center – 2013
# Screen: 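Knockdowns that increase or decrease active ERK after insulin receptor stimulation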 (primary screen)
# Cells: Drosophila S2R+ haemocyte-like cells expressing YFP-tagged ERK (Rolled)
# Reagents: long dsRNA against Drosophila genes
# Conditions: insulin stimulation versus unstimulated cells; dose and duration not given
# Measured: 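Antibody staining for doubly phosphorylated ERK divided by ERK-YFP signal, as plate z-scores, in insulin-treated and untreated cells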
# Scale: replicate 1, z-score of dpERK with insulin and replicate 2, z-score of dpERK with insulin: higher = more active ERK per ERK-YFP after insulin; replicate 1, z-score of dpERK under basal conditions: higher = more basal active ERK per ERK-YFP; replicate 1, z-score of ERK-YFP with insulin: higher = more YFP-tagged ERK signal
# The screen tested about 23,000 reagents; this is an unselected part of those that have a named target and a result. 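Extra replicates exist only for a retested subset of genes; insulin dose and duration not given; both raised and lowered dpERK matter.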 Reagents against one gene are numbered here. No sequences are given here. Not given: the amount of reagent, the time to read-out.
target,reagent no.,"replicate 1, z-score of dpERK with insulin","replicate 2, z-score of dpERK with insulin","replicate 1, z-score of dpERK under basal conditions","replicate 1, z-score of ERK-YFP with insulin"
Cubn,1,0.6,-0.61,0.62,0.11
Spag1,1,0.48,1.02,0.2,0.19
Gs2,1,-0.51,-0.19,-0.07,0.48
CG12134,1,0.21,-0.03,1.57,0.18
CG15767,1,0.94,0.02,-0.87,-0.48
CG10177,1,-0.09,0.07,-0.38,0.23
CG13937,1,-0.65,-0.49,-0.4,0.89
Cht11,1,-0.28,0.16,0.53,-0.18
Ccdc114,1,-0.87,-1.49,-0.35,-0.08
CG8757,1,-0.1,0.23,-0.11,0.12
CG10384,1,0.15,-0.39,-0.32,-0.52
CG10384,2,-0.38,-4.47,-0.86,-2.45
Dro,1,0.2,0.22,0.4,0.07
CG15475,1,-0.15,1.14,-0.34,0.73
CG4393,1,-0.27,-0.1,0,0.42
CG4970,1,0.2,-0.11,-0.14,-0.32
CG17193,1,0.06,0.23,-0.38,0.13
aru,1,0.06,0.17,0.29,-0.18
aru,2,0.21,0.53,-0.32,0.81
UBL3,1,-2.09,-0.63,-0.86,0.4
CG17672,1,-5.84,-3.49,-2.59,-4.7
CG17672,2,0.46,-0.25,0.76,0.09
skl,1,-0.05,-0.49,2.06,0.64
CG15236,1,-0.12,-0.36,0.1,-0.38
CG15236,2,-2.05,-0.96,-1.54,1.34
RpL26,1,-3.59,0,-0.02,-4.43
Met,1,0.19,0.13,0.78,0.49
Ir52c,1,-0.5,0.17,-0.34,1.88
CG8701,1,0.02,-0.09,-0.06,0.57
ash1,1,0.83,1.04,-1.34,-0.12
CG8910,1,-0.56,-0.41,1.19,0.61
FIG4,1,0.8,1.26,0.41,-0.65
SA1,1,0.91,0.83,-0.34,0.86
CG12699,1,0.2,1.78,0.53,-0.67
RpL37-1,1,1.04,-0.88,0.25,-0.52
RpL37-1,2,-1.04,-1.42,3.73,-0.83
Dref,1,-0.8,0.03,1.11,1.24
beat-IV,1,-0.82,-0.66,-0.57,0.07
beat-IV,2,0.48,0.5,0.6,0.06

Quoted from above (7 entries):
target,reagent no.,"replicate 1, z-score of dpERK with insulin","replicate 2, z-score of dpERK with insulin","replicate 1, z-score of dpERK under basal conditions","replicate 1, z-score of ERK-YFP with insulin"
CG17672,1,-5.84,-3.49,-2.59,-4.7
CG17672,2,0.46,-0.25,0.76,0.09
skl,1,-0.05,-0.49,2.06,0.64
CG15236,1,-0.12,-0.36,0.1,-0.38
CG15236,2,-2.05,-0.96,-1.54,1.34
RpL26,1,-3.59,0,-0.02,-4.43
Met,1,0.19,0.13,0.78,0.49
